Measurements as given in patent US20210395379A1.
Results are given in words; binding and its absence hold for the method and conditions named. Some results given as binding are weak or reduced against the parent protein; the word gives no strength.

Sequences of proteins named here, by UniProt entry; tags and fusion partners are left off. A change or cut given only in a name is not applied to a line headed by its entry. Residues count along the entry.
UniProt Q07011: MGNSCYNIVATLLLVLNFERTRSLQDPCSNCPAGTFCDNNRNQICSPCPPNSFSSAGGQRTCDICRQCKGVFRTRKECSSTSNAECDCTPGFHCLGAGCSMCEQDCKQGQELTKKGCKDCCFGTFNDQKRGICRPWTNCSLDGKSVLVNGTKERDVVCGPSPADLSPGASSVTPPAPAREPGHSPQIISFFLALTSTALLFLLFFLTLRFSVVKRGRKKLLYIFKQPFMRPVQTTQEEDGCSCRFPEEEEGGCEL
UniProt P41273, residues 50-254: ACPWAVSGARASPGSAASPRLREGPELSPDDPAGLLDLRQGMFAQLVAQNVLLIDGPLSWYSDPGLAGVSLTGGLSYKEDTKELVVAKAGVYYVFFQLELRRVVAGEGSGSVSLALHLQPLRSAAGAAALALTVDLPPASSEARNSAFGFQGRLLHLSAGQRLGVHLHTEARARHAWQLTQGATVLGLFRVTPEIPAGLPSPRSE

Target: human CD137 extracellular domain (Peprotech, cat. 310-15-1MG) (human) (UniProt Q07011)
Assay: flow cytometry; binder captured on protein G beads, R-PE labelled CD137 ECD

With “CD137L ECD fused to the Fc part of a human IgG1 (from UniProt P41273 50-254) (Fc fusion)” the binding was “binds”.
